This is one part of the list. These are raw signals, not scaled to a control.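 In the initial screen, polymyxin B was used at a concentration that permeabilizes Salmonella's outer membrane but not its inner membrane. Maximum growth was set by DMSO wells with or without polymyxin B. Since plates varied, data were ranked per plate, and compounds giving the lowest OD600 advanced as hits.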
Tested on: Salmonella enterica serovar Typhimurium SL1344
Test: bacterial growth OD600 after 18 h with compound and polymyxin B; higher = more bacterial growth (less inhibition)
Settings: 50 µM, Mueller-Hinton broth

Row | SMILES | bacterial growth OD600 (polymyxin B 1 µg/mL) | bacterial growth OD600 (polymyxin B 0.75 µg/mL)
1 | CCOC(=O)C1(Cc2cccc(OC)c2)CCCN(S(=O)(=O)Cc2ccccc2)C1 (stereo not given) | 0.555 | 
2 | Cc1c(CN2CCOc3ccc(CN4CCC(OCc5ccccc5)CC4)cc3C2)cnn1C |  | 0.803
3 | O=C(Nc1ccc(Oc2ccccc2)nc1)C1CCN(CC2CC2)CC1 |  | 0.84
4 | COCc1noc(-c2ccc(N3CCCC3c3nccs3)nc2)n1 (stereo not given) | 0.005 | 
5 | Cc1c(-c2ccc(F)cc2)[nH]c2ccc(CNC(C)CO)cc12 (stereo not given) | 0.715 | 
6 | O=C(NC1CCCN(C2CCCCCC2)C1)c1ccc(Cn2cnnn2)cc1 (stereo not given) | 1.08 | 
7 | Cc1nc(C(=O)N2CCC(CCC(=O)N3CCC(Cc4ccccc4)CC3)CC2)cs1 | 0.884 | 
8 | CCC(CC)NC(=O)C1CCC(=O)N(CCc2ccc(Cl)cc2)C1 (stereo not given) | 0.9 | 
9 | O=C(NC1CCc2ccccc21)c1ccc(OC2CCN(C(=O)C3CC3)CC2)cc1 (stereo not given) | 0.569 | 
10 | CN1C(=O)CC(CC(=O)N2CCC[C@H]2CO)(c2ccc(-c3ccccc3)cc2)C1=O (stereo not given in full) |  | 0.742
11 | Cc1nc(N2CCCC(NCc3cc(F)ccc3F)CC2)nc2ccc(F)cc12 (stereo not given) |  | 0.698
12 | CC(C)CCC(=O)N1CCC2(CCCN(Cc3cccc(F)c3F)C2=O)C1 (stereo not given) | 0.505 | 
13 | Cc1ccoc1C(=O)N1CCc2[nH]nc(-c3ccc(Cl)cc3)c2C1 |  | 0.026
14 | COc1cccc(CC2(CO)CCCN(Cc3ccc4c(c3)OCCO4)C2)c1 (stereo not given) | 0.831 | 
15 | CCOC(=O)CCNC(=O)N1CCCC(CNS(=O)(=O)c2cccs2)C1 (stereo not given) |  | 0.777
16 | COc1ccc(F)c(-c2nc(CN(C)C(C)c3cccs3)c(C)o2)c1 (stereo not given) | 0.833 | 
17 | CCOC(=O)C1(Cc2ccccc2)CCCN(Cc2cnn(CC)c2)C1 (stereo not given) | 0.887 | 
18 | COc1cc(CN(C(=O)c2cccc(-c3cccc(F)c3)c2)[C@H]2CCCCNC2=O)ccc1OCCc1scnc1C |  | 0.52
19 | COCC(=O)Nc1cc(C(=O)N2CCN(C(C)=O)CC2)c2c(c1)ncn2Cc1ccc(F)cc1 |  | 0.811
20 | CCCCN(C)Cc1cnc(S(=O)(=O)C(C)C)n1Cc1ccccc1F | 0.971 | 

An excerpt from above in order of formula weight, low to high:
Row | SMILES | bacterial growth OD600 (polymyxin B 1 µg/mL) | bacterial growth OD600 (polymyxin B 0.75 µg/mL)
4 | COCc1noc(-c2ccc(N3CCCC3c3nccs3)nc2)n1 (stereo not given) | 0.005 | 
2 | Cc1c(CN2CCOc3ccc(CN4CCC(OCc5ccccc5)CC4)cc3C2)cnn1C |  | 0.803
18 | COc1cc(CN(C(=O)c2cccc(-c3cccc(F)c3)c2)[C@H]2CCCCNC2=O)ccc1OCCc1scnc1C |  | 0.52

From the supplement of paper PMC12889115
